Data published in patent US9481734B2 (Janssen Biotech, Inc., priority 2007, dated 2016).

Assays:
[1] = test system: human IgG1; experiment: Proteinase digestion of purified IgG1, Agilent biosizing; format: biochemical; details: human IgG1 heavy chain, EU numbering; 1% (w/w) enzyme, pH 7.5, 37° C.
Procedure: A purified monoclonal antibody comprising a human IgG heavy chain was contacted with the proteases described and sampling was conducted over various durations of contact. Fragmentation in the samples was evaluated using the Agilent microfluidics “lab-on-a-chip” technology for in vitro biosizing (Goetz H et al. Biochemical and Biophysical Methods 60; 281-293, 2004).
Proteinase digestions of purified IgGs were carried out at pH 7.5 in phosphate-buffered saline (PBS) or, for the metalloproteinases, in Tris-buffered saline buffer at 37° C. Calcium chloride was included in the metalloproteinase reactions at 1 mM for MMP-12 and 10 mM for MMP-3; otherwise no additives were used. Antibody concentrations were typically 1 or 2 mg/mL and reactions were initiated by addition of enzyme to a 1% (w/w) ratio to IgG. Aliquots (10-20 μL) were removed at indicated times and the reactions were stopped either by adjustment to 20 mM EDTA (metalloproteinase incubations) or to 1 mM iodoacetamide (cysteine proteinases) or by rapid freezing.
The major proteolytic cleavage positions in the IgG1 hinge were identified for enzyme-generated fragments by N-terminal sequencing of the purified Fc fragment (MMP-3 and MMP-12) and/or high resolution mass spectrometric analyses of the purified Fab (neutrophil elastase, plasmin) and F(ab′)2 (cathepsin G, glutamyl endopeptidase and IdeS) fragments. Fragmentation was evaluated using the Agilent microfluidics “lab-on-a-chip” technology.

[2] = general procedure: Fmoc solid-phase peptide synthesis; Fmoc-Glu(OtBu)-Wang Resin; FastMoc chemistry; details: whole synthesis, scale 0.25 mmol

Substance	Cleaved Site [1]	crude mass [2]	isolated mass [2]
Stromelysin (MMP-3): human metalloendopeptidase	Pro^232-	–	–
Matrilysin (MMP-7): human metalloendopeptidase	Leu^234-	–	–
Neutrophil elastase: human neutrophil serine endopeptidase	Thr^223-	–	–
CTSPPSPSPAPE	–	Approximately 190 mg	38 mg
Cathepsin G: human serine endopeptidase	Glu^233-	–	–

For part of these data: Where a sequence shows no end group, the ends are not given.
